Drawing on PubChem BioAssay AID248 (DTP/NCI, 2004), this text covers survivor count and T/C for 26 compounds.

The list shows only some results of the screen, not a fair sample: it is rich in T/C values a quarter to a half above the control, in often repeated tests (any T/C) and in doses without a T/C. Further doses and runs are listed elsewhere. T/C: endpoint of the treated group in % of that of the vehicle group. Some entries give survivors of the animals treated and no T/C: the source holds a T/C of zero for them, seemingly a mark for toxic or unscored doses. Some doses without a T/C left all or most animals alive at the check, yet need not have been tolerated: the source hardly ever lists a survival T/C far under the control, and the zero likely stands for such cases as well. Survivors were counted at the toxicity check, usually on the fifth day, unless a day is given; later deaths do not show. Schedules are NCI's codes, taken here to give the interval after Q, in days (D) or hours (H), and the number of doses after X. Some schedule codes hold Z or #, which are not explained here. For survival time, this PubChem deposit counts one and a half times the control or more as active, and values a quarter to a half above the control carry no call in these data; other NCI protocols may use other cut-offs. Some doses were run more than once; their values stand side by side, smallest first. Signs of the kind (2×) count equal records among those shown.

The test system of this experiment is L1210 leukemia ip in BDF1 mice, survival T/C. The experiment in a line: NCI In Vivo Anticancer Drug Screen. Data for tumor model L1210 Leukemia (intraperitoneal) in B6D2F1 (BDF1) mice. The note with it: T/C endpoint: mean survival time, higher T/C = longer survival.
Setting [1] is: dose: 100.0 mg/kg/injection, schedule: Q01DX001 (ip), vehicle: saline.
The mark [2] stands for this setting: dose: 200.0 mg/kg/injection, schedule: Q01DX001 (ip), vehicle: saline.
Where [3] appears, read: dose: 400.0 mg/kg/injection, schedule: Q01DX001 (ip), vehicle: saline.
Setting [4] is: dose: 100.0 mg/kg/injection, schedule: Q04DX002 (ip), vehicle: saline with Tween-80.
Where [5] appears, read: dose: 200.0 mg/kg/injection, schedule: Q04DX002 (ip), vehicle: saline with Tween-80.
Where [6] appears, read: dose: 400.0 mg/kg/injection, schedule: Q01DX009 (ip), vehicle: saline with Tween-80.
The mark [7] stands for this setting: dose: 400.0 mg/kg/injection, schedule: Q04DX002 (ip), vehicle: saline with Tween-80.
[8] abbreviates: dose: 200.0 mg/kg/injection, schedule: Q01DX001 (ip), vehicle: other.
Setting [9] is: dose: 300.0 mg/kg/injection, schedule: Q01DX001 (ip), vehicle: saline.
Where [10] appears, read: dose: 200.0 mg/kg/injection, schedule: Q04DX003 (ip), vehicle: Klucel (hydroxypropylcellulose) (HPC).
[11] abbreviates: dose: 400.0 mg/kg/injection, schedule: Q04DX003 (ip), vehicle: Klucel (hydroxypropylcellulose) (HPC).
The mark [12] stands for this setting: dose: 100.0 mg/kg/injection, schedule: Q01DX009 (ip), vehicle: saline with Tween-80.
Where [13] appears, read: dose: 200.0 mg/kg/injection, schedule: Q01DX009 (ip), vehicle: saline with Tween-80.
[14] abbreviates: dose: 200.0 mg/kg/injection, schedule: Q04DX003 (ip), vehicle: saline.
Setting [15] is: dose: 400.0 mg/kg/injection, schedule: Q04DX003 (ip), vehicle: saline.

For the compound `CC[N+](C)(CC)CCCN(C)C(=O)C(c1ccccc1)c1ccccc1`, the survivor count reads like this: under setting [1], 0 of 6; (dose: 115.0 mg/kg/injection, schedule: Q04DX003 (ip), vehicle: saline) 2 of 6; (dose: 170.0 mg/kg/injection, schedule: Q04DX003 (ip), vehicle: saline) 2 of 6; under setting [2], 0 of 6; under setting [3], 0 of 6.

As to `CSc1nc(C)c(Br)c(Sc2nc(N)nc3nc[nH]c23)n1`, where the note is “dose: 200.0 mg/kg/injection, schedule: Q01DX Z (ip), vehicle: methylcellulose (MC)”, the survivor count was 6 of 6.

Turning to `Cc1ccccc1C(O)c1cnc(C)n1Cc1ccccc1` (stereo not given), the T/C runs as follows: under setting [4], 90 (2×), 95, 105 % of control; under setting [5], 93, 98, 100 % of control; under setting [7], 88, 93, 100 % of control. Besides, the survivor count was 3 of 3 under setting [5], 3 of 3 under setting [6] and 3 of 3 under setting [7].

With `CC(=O)OCCC/C(=C\c1cccc([N+](=O)[O-])c1)[N+](=O)[O-]`, the survivor count under setting [8] was 2 of 4 and the survivor count (dose: 400.0 mg/kg/injection, schedule: Q01DX001 (ip), vehicle: other) is on record as 0 of 4.

As to `CC(=O)Oc1ccc2ccccc2c1CN(Cc1c(OC(C)=O)ccc2ccccc12)C(C)=O`, under setting [8], the survivor count is 6 of 6.

`CCCC[P+](CO)(CCCC)CCCC`: the survivor count under setting [1] was 3 of 6 and the survivor count under setting [9] was 0 of 6.

As for `CCCC[P+](CCCC)(CCCC)Cc1ccc(C(=O)Oc2ccc([N+](=O)[O-])cc2)cc1`, the survivor count runs as follows: under setting [10], 3 of 6; under setting [11], 2 of 6.

In the case of `Clc1ccccc1C=NCC1CCC(CN=Cc2ccccc2Cl)CC1` (stereo not given), the survivor count by setting is: under setting [12], 6 of 6; under setting [13], 3 of 3; under setting [5], 3 of 3; under setting [7], 3 of 3.

For `CN(C)CCC(CNC1=NCCN1)c1cccc2ccccc12` (stereo not given), the survivor count runs as follows: under setting [4], 1 of 3; under setting [5], 0 of 3; under setting [7], 1 of 3.

Consider `c1ccc([P+](Cc2ccc3ccccc3n2)(c2ccccc2)c2ccccc2)cc1`, for which the survivor count is, setting by setting: (dose: 50.0 mg/kg/injection, schedule: Q01DX009 (ip), vehicle: saline) 0 of 3; (dose: 100.0 mg/kg/injection, schedule: Q01DX009 (ip), vehicle: saline) 0 of 3; (dose: 200.0 mg/kg/injection, schedule: Q01DX009 (ip), vehicle: saline) 0 of 3.

`CC(=O)c1ccc(N=C=O)cc1`: the survivor count reads like this: (dose: 100.0 mg/kg/injection, schedule: Q01DX001 (ip), vehicle: saline with Tween-80) 3 of 3; (dose: 200.0 mg/kg/injection, schedule: Q01DX001 (ip), vehicle: saline with Tween-80) 3 of 3.

As for `c1ccc2c(c1)ccc1[nH]c3ccc4ccccc4c3c12`, the survivor count (dose: 50.0 mg/kg/injection, schedule: Q01DX009 (ip), vehicle: Klucel (hydroxypropylcellulose) (HPC)) is 4 of 6; the survivor count (dose: 100.0 mg/kg/injection, schedule: Q04DX003 (ip), vehicle: Klucel (hydroxypropylcellulose) (HPC)) is given as 1 of 6; the survivor count under setting [10] is 3 of 6; the survivor count under setting [11] is listed as 3 of 6.

Turning to `CCc1cc(Cl)ccc1OCC(=O)O`, the survivor count under setting [6] is recorded as 0 of 6.

For `Cc1cc([N+](=O)[O-])c2ccccc2[n+]1[O-]`, the survivor count by setting is: (dose: 50.0 mg/kg/injection, schedule: Q01DX009 (ip), vehicle: saline with Tween-80) 5 of 6; under setting [12], 2 of 6.

For the compound `CCSCCC#N`, the survivor count (dose: 400.0 mg/kg/injection, schedule: Q04DX002 (ip), vehicle: saline) was 1 of 3.

As to `c1ccc2c(c1)CCC1NC21` (stereo not given), the survivor count (dose: 400.0 mg/kg/injection, schedule: Q01DX001 (ip), vehicle: carboxymethylcellulose (CMC)) is 0 of 4.

In the case of `O=C1Cc2ccccc2CN1`, the survivor count (dose: 300.0 mg/kg/injection, schedule: Q01DX001 (ip), vehicle: acetone) is on record as 2 of 6.

Regarding `Nc1nc(N)c(-c2ccc(Cl)c(Cl)c2)c(C[P+](c2ccccc2)(c2ccccc2)c2ccccc2)n1`, the survivor count is reported as 1 of 6 (dose: 150.0 mg/kg/injection, schedule: Q01DX001 (ip), vehicle: saline) and 2 of 6 under setting [9].

Turning to `S=c1nc[nH]c2c1ncn2CN1CCCCC1`, under “dose: 200.0 mg/kg/injection, schedule: Q01DX Z (ip), vehicle: carboxymethylcellulose (CMC)”, the survivor count was 2 of 6.

For `O=C(NC1CCCCC1)Oc1c(Cl)cc(Cl)c(Cl)c1[N+](=O)[O-]`, the survivor count is 0 of 3 under setting [5] and 0 of 3 under setting [7].

`[O-]/[N+](=N\O)c1ccc(/[N+]([O-])=N\O)cc1`: the survivor count is on record as 4 of 6 under setting [12]; 0 of 6 under setting [13]; 0 of 6 (dose: 400.0 mg/kg/injection, schedule: Q01DX001 (ip), vehicle: saline with Tween-80).

Take `O=[N+]([O-])C(Cl)(Cl)C(Cl)(Cl)[N+](=O)[O-]`: the survivor count is, setting by setting: (dose: 25.0 mg/kg/injection, schedule: Q04DX003 (ip), vehicle: other) 0 of 6; (dose: 50.0 mg/kg/injection, schedule: Q04DX003 (ip), vehicle: other) 0 of 6; under setting [1], 1 of 4; (dose: 100.0 mg/kg/injection, schedule: Q04DX003 (ip), vehicle: other) 0 of 6; under setting [2], 1 of 4; under setting [3], 1 of 4.

`C=C(Br)S(=O)(=O)CC`: the survivor count is, setting by setting: (dose: 50.0 mg/kg/injection, schedule: Q04DX002 (ip), vehicle: Klucel (hydroxypropylcellulose) (HPC)) 1 of 3; (dose: 100.0 mg/kg/injection, schedule: Q04DX002 (ip), vehicle: Klucel (hydroxypropylcellulose) (HPC)) 0 of 3; (dose: 200.0 mg/kg/injection, schedule: Q04DX002 (ip), vehicle: Klucel (hydroxypropylcellulose) (HPC)) 0 of 3; (dose: 400.0 mg/kg/injection, schedule: Q04DX002 (ip), vehicle: Klucel (hydroxypropylcellulose) (HPC)) 0 of 3.

Regarding `O=C(C[n+]1cccc(CO)c1)c1ccccc1`, the survivor count was 0 of 6 (dose: 100.0 mg/kg/injection, schedule: Q04DX003 (ip), vehicle: saline); 0 of 6 under setting [14]; 0 of 6 under setting [15].

As to `C(=C(\C[P+](c1ccccc1)(c1ccccc1)c1ccccc1)c1ccccc1)/c1ccccc1`, the survivor count is listed as 3 of 6 (dose: 10.0 mg/kg/injection, schedule: Q01DX009 (ip), vehicle: saline with Tween-80); 6 of 6 (dose: 10.0 mg/kg/injection, schedule: Q04DX003 (ip), vehicle: saline with Tween-80); 2 of 6 (dose: 20.0 mg/kg/injection, schedule: Q01DX009 (ip), vehicle: saline with Tween-80); 0 of 6 (dose: 100.0 mg/kg/injection, schedule: Q04DX003 (ip), vehicle: saline with Tween-80); 0 of 6 (dose: 200.0 mg/kg/injection, schedule: Q04DX003 (ip), vehicle: saline with Tween-80); 0 of 6 (dose: 400.0 mg/kg/injection, schedule: Q04DX003 (ip), vehicle: saline with Tween-80).

As for `O=C(OCCN1CCCC1)C(c1ccccc1)C1(O)CCCC1` (stereo not given), the survivor count reads like this: under setting [14], 1 of 6; under setting [15], 0 of 6.
